Assay results published in the supplement of paper PMC12823440, “Inhibitors supercharge kinase turnover through native proteolytic circuits” (Nature, 2025).
Where a name gives a salt, the structure may show the parent alone. The list shows a part of the results. The calls rarely recur for the same compound in another form.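 Kinases were expressed as nanoluciferase fusions in K562 cells and luminescence was read every 4 h between 2 and 18 h as percent of control, DMSO set to 100% and a positive control to 0%. A time point counts as decreased when the signal drops significantly (2 sigma). The hit call is the authors' own, does not follow from the count of time points alone, and its rule is not shown.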

Protein sequences, listed by entry. Tags and fused reporters are not part of them. Lines headed by an entry give the natural chain unless they say otherwise; changes in a name come on top.
UniProt Q9UQM7, whole entry: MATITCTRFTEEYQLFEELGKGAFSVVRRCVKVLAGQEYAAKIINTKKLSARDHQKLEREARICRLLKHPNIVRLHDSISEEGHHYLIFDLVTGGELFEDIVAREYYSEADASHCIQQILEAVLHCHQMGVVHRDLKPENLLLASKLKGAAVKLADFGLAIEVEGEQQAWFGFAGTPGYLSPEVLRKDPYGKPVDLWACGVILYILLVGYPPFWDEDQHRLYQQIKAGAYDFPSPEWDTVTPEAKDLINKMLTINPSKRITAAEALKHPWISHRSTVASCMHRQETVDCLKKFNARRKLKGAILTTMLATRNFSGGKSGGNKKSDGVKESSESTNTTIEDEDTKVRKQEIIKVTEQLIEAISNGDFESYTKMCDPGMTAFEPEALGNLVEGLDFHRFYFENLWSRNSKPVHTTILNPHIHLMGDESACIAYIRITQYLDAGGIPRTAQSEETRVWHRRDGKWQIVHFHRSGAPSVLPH
UniProt Q13555: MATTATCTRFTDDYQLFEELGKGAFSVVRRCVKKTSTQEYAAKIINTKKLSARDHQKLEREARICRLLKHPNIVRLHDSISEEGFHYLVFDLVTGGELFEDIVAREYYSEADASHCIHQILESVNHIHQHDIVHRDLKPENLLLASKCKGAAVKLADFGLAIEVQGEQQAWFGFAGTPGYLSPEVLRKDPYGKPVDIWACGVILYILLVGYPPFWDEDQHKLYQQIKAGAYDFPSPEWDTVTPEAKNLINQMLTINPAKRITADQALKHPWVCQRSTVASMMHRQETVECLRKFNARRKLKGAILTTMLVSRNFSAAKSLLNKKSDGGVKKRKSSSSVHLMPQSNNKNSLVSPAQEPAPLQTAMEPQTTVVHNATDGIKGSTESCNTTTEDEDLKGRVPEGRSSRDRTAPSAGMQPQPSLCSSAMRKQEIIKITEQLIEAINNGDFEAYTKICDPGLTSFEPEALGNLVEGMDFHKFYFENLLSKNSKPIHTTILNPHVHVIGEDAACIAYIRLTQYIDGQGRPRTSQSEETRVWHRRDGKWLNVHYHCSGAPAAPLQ
UniProt Q15131: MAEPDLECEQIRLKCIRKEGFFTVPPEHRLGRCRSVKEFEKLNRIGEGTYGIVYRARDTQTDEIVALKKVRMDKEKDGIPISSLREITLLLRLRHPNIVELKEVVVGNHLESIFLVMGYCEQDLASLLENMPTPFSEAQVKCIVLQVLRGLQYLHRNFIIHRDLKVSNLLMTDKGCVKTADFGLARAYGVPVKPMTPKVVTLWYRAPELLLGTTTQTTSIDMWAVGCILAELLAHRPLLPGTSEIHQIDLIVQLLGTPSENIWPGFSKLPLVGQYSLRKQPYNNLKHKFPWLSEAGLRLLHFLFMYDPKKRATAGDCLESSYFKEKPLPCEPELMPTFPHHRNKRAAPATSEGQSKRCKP
UniProt Q00526: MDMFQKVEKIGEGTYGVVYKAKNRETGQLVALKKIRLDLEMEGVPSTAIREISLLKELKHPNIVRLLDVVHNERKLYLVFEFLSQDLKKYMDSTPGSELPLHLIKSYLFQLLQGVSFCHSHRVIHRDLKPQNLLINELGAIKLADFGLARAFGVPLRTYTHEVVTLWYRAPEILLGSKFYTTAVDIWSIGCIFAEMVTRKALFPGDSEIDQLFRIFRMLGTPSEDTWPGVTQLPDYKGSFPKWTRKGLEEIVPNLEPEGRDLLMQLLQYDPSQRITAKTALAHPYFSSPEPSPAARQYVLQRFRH
UniProt Q00535, whole entry, looked up: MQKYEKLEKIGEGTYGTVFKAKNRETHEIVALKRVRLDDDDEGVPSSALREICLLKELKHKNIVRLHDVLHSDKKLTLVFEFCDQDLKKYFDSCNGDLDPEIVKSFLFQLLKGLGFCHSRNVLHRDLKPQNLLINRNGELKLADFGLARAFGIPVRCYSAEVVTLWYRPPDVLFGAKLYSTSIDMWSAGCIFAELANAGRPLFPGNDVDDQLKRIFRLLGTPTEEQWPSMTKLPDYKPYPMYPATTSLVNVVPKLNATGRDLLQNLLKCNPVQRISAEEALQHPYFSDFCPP
UniProt Q00534, whole entry: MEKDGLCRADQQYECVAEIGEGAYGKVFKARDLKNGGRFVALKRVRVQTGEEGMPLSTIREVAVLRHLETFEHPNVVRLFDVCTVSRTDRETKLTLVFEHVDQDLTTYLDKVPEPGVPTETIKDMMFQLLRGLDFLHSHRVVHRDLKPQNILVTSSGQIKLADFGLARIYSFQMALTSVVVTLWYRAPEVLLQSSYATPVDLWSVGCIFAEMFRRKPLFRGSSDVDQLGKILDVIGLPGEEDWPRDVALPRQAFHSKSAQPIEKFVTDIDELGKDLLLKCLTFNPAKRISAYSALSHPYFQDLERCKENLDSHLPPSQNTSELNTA
UniProt O96017, whole entry: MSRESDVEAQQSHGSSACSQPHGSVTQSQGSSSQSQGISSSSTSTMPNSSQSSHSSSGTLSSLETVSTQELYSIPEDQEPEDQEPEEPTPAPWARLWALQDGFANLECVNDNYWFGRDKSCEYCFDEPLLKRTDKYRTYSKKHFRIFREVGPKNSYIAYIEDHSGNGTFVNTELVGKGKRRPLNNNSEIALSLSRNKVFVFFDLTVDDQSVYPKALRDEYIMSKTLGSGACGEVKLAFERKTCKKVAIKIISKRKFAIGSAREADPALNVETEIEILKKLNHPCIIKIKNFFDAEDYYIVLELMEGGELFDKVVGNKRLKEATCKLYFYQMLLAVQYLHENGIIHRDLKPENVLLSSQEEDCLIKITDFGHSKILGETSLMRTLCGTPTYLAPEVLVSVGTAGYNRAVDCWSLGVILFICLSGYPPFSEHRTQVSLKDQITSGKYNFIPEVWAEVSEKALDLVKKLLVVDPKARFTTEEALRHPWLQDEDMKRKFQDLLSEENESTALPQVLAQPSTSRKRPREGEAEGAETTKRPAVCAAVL
UniProt P07333, whole entry: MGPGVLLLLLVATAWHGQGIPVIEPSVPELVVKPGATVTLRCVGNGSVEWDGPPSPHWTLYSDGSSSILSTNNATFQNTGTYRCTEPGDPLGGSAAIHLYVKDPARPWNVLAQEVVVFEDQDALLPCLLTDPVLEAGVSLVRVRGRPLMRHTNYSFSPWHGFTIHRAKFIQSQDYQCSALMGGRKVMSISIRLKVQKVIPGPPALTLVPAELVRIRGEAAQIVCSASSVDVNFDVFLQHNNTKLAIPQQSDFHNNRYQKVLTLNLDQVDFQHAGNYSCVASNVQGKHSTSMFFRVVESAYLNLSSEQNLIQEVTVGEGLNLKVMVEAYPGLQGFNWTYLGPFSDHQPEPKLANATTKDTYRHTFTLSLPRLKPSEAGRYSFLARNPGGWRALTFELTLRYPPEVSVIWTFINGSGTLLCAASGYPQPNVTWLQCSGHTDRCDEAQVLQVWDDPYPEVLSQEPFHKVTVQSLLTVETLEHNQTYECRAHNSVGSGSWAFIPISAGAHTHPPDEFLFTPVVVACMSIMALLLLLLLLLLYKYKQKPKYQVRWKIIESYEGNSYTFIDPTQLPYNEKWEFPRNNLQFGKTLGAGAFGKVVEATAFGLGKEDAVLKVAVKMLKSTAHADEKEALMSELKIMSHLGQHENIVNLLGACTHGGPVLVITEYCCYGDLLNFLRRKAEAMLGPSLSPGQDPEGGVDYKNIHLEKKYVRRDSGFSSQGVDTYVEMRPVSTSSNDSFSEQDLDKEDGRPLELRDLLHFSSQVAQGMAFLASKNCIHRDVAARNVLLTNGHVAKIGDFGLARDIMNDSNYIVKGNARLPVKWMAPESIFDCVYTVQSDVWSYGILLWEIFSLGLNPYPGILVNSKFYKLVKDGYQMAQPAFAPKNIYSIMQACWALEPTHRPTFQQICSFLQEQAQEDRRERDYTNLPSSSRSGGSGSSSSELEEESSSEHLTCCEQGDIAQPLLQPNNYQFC
UniProt P41240: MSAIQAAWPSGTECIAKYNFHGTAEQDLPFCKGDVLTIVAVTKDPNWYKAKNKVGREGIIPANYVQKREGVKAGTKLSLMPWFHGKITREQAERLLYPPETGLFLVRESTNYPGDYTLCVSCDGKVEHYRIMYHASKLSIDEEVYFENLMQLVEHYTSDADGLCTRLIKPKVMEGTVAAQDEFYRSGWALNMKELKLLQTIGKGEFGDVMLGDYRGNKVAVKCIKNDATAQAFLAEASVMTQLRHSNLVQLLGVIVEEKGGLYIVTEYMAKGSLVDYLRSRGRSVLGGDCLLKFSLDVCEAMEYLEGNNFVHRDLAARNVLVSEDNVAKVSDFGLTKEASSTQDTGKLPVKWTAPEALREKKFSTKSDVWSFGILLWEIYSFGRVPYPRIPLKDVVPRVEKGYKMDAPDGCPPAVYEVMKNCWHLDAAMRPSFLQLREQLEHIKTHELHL
UniProt P48729: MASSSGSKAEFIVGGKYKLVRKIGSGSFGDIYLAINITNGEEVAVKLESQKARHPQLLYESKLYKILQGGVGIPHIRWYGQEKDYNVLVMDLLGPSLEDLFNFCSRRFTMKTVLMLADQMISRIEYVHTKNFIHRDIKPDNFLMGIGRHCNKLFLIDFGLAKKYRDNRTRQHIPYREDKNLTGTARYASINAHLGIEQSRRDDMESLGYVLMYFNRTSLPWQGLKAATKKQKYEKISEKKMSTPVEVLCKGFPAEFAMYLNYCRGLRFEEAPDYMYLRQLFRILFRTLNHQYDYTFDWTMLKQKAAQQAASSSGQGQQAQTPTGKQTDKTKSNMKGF
UniProt P48730: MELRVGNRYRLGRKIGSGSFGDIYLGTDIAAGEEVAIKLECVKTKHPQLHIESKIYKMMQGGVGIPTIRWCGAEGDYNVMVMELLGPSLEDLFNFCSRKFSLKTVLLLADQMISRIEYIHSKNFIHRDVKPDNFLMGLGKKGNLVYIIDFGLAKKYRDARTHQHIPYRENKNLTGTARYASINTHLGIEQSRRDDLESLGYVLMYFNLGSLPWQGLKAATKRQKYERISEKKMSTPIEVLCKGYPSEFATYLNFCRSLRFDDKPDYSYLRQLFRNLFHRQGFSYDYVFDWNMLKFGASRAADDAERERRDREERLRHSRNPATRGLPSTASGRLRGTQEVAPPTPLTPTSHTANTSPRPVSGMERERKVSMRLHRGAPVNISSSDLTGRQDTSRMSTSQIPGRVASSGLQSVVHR
UniProt Q08345: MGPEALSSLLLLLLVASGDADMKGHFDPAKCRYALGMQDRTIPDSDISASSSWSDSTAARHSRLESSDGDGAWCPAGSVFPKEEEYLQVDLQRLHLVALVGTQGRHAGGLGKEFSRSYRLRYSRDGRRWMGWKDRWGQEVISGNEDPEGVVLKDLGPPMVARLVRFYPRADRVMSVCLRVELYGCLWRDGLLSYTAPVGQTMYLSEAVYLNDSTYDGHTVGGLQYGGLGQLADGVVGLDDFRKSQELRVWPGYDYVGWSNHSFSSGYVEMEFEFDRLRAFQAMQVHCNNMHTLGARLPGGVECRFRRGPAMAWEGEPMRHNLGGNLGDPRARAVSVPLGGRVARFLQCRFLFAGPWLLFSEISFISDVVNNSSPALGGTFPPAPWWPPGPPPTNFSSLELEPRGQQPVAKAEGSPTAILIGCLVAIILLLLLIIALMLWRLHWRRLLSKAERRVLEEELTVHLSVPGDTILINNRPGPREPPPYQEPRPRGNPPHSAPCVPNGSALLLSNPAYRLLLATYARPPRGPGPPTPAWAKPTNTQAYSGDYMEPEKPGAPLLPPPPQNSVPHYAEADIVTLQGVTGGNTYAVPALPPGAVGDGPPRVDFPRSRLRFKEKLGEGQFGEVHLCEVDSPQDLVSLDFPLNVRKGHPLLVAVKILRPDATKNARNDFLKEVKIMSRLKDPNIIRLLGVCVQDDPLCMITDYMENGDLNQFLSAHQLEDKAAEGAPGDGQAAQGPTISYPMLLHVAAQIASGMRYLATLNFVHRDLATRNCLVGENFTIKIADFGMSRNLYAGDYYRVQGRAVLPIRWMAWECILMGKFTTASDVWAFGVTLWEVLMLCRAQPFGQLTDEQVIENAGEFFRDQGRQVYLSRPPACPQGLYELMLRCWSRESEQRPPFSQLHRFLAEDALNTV
UniProt Q92630: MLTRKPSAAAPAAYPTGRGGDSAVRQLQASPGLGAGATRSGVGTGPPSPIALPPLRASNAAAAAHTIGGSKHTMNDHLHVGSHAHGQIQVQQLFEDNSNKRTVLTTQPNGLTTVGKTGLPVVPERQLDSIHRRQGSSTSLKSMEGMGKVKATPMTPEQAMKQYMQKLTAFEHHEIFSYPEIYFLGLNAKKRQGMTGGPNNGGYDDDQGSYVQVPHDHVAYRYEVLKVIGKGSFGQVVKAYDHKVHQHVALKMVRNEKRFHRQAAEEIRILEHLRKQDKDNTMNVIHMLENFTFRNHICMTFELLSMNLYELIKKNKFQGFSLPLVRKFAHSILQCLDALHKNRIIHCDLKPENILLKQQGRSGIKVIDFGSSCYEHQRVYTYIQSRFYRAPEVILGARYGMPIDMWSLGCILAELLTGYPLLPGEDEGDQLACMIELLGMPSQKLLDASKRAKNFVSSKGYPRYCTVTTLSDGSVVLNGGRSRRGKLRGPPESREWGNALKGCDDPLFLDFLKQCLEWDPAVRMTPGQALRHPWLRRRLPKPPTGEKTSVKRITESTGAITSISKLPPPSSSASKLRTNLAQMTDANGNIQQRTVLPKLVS

What was measured:
Experiment in all cases: number of time points (of 5) at which kinase-Nluc abundance scored as decreased, DMSO-normalised (count); higher = more persistent destabilization
Details in all cases: K562; 2-18 h
CAMK2A = CAMK2A (UniProt Q9UQM7)
CAMK2G = CAMK2G (UniProt Q13555)
CDK10 = CDK10 (UniProt Q15131)
CDK2 = CDK2 (UniProt P24941)
CDK3 = CDK3 (UniProt Q00526)
CDK5 = CDK5 (UniProt Q00535)
CDK6 = CDK6 (UniProt Q00534)
CHEK2 = CHEK2 (UniProt O96017)
CSF1R = CSF1R (UniProt P07333)
CSK = CSK (UniProt P41240)
CSNK1A1 = CSNK1A1 (UniProt P48729)
CSNK1D = CSNK1D (UniProt P48730)
DDR1 = DDR1 (UniProt Q08345)
DYRK1B = DYRK1B (UniProt Q9Y463)
DYRK2 = DYRK2 (UniProt Q92630)
EGFR = EGFR (UniProt P00533)
EGFR_G719S = EGFR_G719S (UniProt P00533)
EGFR_G719S_T790M = EGFR_G719S_T790M (UniProt P00533)
EGFR_L718V = EGFR_L718V (UniProt P00533)
EGFR_L858R = EGFR_L858R (UniProt P00533)

Measured: number of time points

Oc1ccc(-c2nc(-c3ccc(F)cc3)c(-c3ccncc3)[nH]2)cc1 (2.5 µM)
0: CAMK2A | CAMK2G | CDK10 | CDK2 | CDK3 | CDK5 | CDK6 | CHEK2 | CSF1R | CSK | CSNK1A1 | CSNK1D | DDR1 | DYRK1B | DYRK2

CCN(CCO)CCCOc1ccc2c(Nc3cc(CC(=O)Nc4cccc(F)c4)[nH]n3)ncnc2c1 [Barasertib-HQPA] (10 µM)
0: CAMK2A | CAMK2G | CDK10 | CDK2 | CDK3 | CDK5 | CDK6 | CHEK2 | CSF1R | CSK | CSNK1A1 | CSNK1D | DDR1 | DYRK1B | DYRK2

Cn1c(=O)c(Oc2ccc(F)cc2F)cc2cnc(NC3CCOCC3)nc21 [R1487 (Hydrochloride)] (10 µM)
0: CAMK2A | CAMK2G | CDK10 | CDK2 | CDK3 | CDK5 | CDK6 | CHEK2 | CSF1R | CSK | CSNK1A1 | CSNK1D | DDR1 | DYRK1B | DYRK2

C[C@]1(O)C[C@@H](c2nc(-c3ccc4ccc(-c5ccccc5)nc4c3)c3c(N)nccn32)C1 [Linsitinib] (2.5 µM)
0: CAMK2A | CAMK2G | CDK10 | CDK2 | CDK3 | CDK5 | CDK6 | CHEK2 | CSF1R | CSK | CSNK1A1 | CSNK1D | DDR1 | DYRK1B | DYRK2

O=C1NCCc2[nH]c(-c3ccnc(-c4cnc5ccccc5c4)c3)cc21 (10 µM)
0: CAMK2A | CAMK2G | CDK10 | CDK2 | CDK3 | CDK5 | CDK6 | CHEK2 | CSF1R | CSK | CSNK1A1 | CSNK1D | DDR1 | DYRK1B | DYRK2

O=C(O)CCNC(=O)c1ccc(/N=N/c2ccc(O)c(C(=O)O)c2)cc1 [Balsalazide] (10 µM)
0: CAMK2A | CAMK2G | CDK10 | CDK2 | CDK3 | CDK5 | CDK6 | CHEK2 | CSF1R | CSK | CSNK1A1 | CSNK1D | DDR1 | DYRK1B | DYRK2 | EGFR | EGFR_G719S | EGFR_G719S_T790M | EGFR_L718V | EGFR_L858R

CCN(CC)CCCCNc1ncc2cc(-c3c(Cl)cccc3Cl)c(NC(=O)NC(C)(C)C)nc2n1 (2.5 µM)
2: CHEK2 | CSNK1D
0: CAMK2A | CDK10 | CDK2 | CDK3 | CDK6 | CSF1R | CSK | DYRK1B | DYRK2
1: CDK5
3: CAMK2G | CSNK1A1 | DDR1

O=c1c(O)c(-c2ccc(O)c(O)c2)oc2cc(O)cc(O)c12 [Quercetin (dihydrate)] (10 µM)
1: DYRK2
0: CAMK2A | CAMK2G | CDK10 | CDK2 | CDK3 | CDK5 | CDK6 | CHEK2 | CSF1R | CSK | CSNK1A1 | CSNK1D | DDR1 | DYRK1B

Nc1ncnc2c1c(-c1ccc(Oc3ccccc3)cc1)cn2C1CCCC1 (2.5 µM)
0: CAMK2A | CAMK2G | CDK10 | CDK2 | CDK3 | CDK5 | CDK6 | CHEK2 | CSF1R | CSK | CSNK1A1 | CSNK1D | DDR1 | DYRK1B
2: DYRK2

COc1cc(CCc2cc(-c3nc4ccc(N5CCN(C)CC5)cc4[nH]3)n[nH]2)cc(OC)c1 (10 µM)
0: CAMK2A | CDK10 | CDK2 | CDK3 | CDK5 | CDK6 | CSF1R | CSK | CSNK1A1 | EGFR | EGFR_G719S | EGFR_L718V
1: CHEK2 | EGFR_G719S_T790M | EGFR_L858R
4: DYRK2
2: CAMK2G | CSNK1D | DDR1 | DYRK1B

COc1cc2c(Nc3ccc(Br)cc3F)ncnc2cc1OCCn1ccnn1 (10 µM)
0: CAMK2A | CAMK2G | CDK10 | CDK2 | CDK3 | CDK5 | CDK6 | CHEK2 | CSF1R | CSK | CSNK1A1 | CSNK1D | DDR1 | DYRK1B | DYRK2

C/C=C(/C)C(=O)O[C@H]1Cc2cc3ccc(=O)oc3cc2OC1(C)C [Decursinol angelate] (10 µM)
0: CAMK2A | CAMK2G | CDK10 | CDK2 | CDK3 | CDK5 | CDK6 | CHEK2 | CSF1R | CSK | CSNK1A1 | CSNK1D | DDR1 | DYRK1B | DYRK2 | EGFR | EGFR_G719S | EGFR_G719S_T790M | EGFR_L718V | EGFR_L858R

Cc1cc(N2CCOCC2)cc2[nH]c(-c3c(NC[C@@H](O)c4cccc(Cl)c4)cc[nH]c3=O)nc12 (10 µM)
3: DDR1
4: DYRK2
0: CAMK2A | CAMK2G | CDK10 | CDK2 | CDK3 | CDK5 | CDK6 | CSF1R | CSK | CSNK1A1 | CSNK1D | DYRK1B
1: CHEK2

CCN1CCN(c2ccc(Nc3cc(N(C)C(=O)Nc4c(Cl)c(OC)cc(OC)c4Cl)ncn3)cc2)CC1 [Infigratinib] (10 µM)
0: CAMK2A | CAMK2G | CDK10 | CDK2 | CDK3 | CDK5 | CDK6 | CHEK2 | CSF1R | CSK | CSNK1A1 | CSNK1D | DDR1 | DYRK1B | DYRK2

C=CC(=O)Nc1ccc2ncnc(Nc3cccc(Br)c3)c2c1 (10 µM)
2: CHEK2
4: DYRK1B | DYRK2
0: CAMK2A | CAMK2G | CDK10 | CDK2 | CDK3 | CDK5 | CDK6 | CSF1R | CSK | CSNK1A1 | CSNK1D
1: DDR1

CNc1nc(-c2ccc3c(N)n[nH]c3c2)cc(N2C[C@@H](C(=O)NC3CCCCC3)CC[C@H]2C)n1 (10 µM)
2: CSF1R
0: CAMK2A | CAMK2G | CDK10 | CDK2 | CDK3 | CDK5 | CDK6 | CSK | CSNK1A1 | CSNK1D | DDR1 | DYRK1B | DYRK2
3: CHEK2

N#C/C(=C\c1ccc(O)c(O)c1)C(=O)NCc1ccccc1 (10 µM)
0: CAMK2A | CAMK2G | CDK10 | CDK2 | CDK3 | CDK5 | CDK6 | CHEK2 | CSF1R | CSK | CSNK1A1 | CSNK1D | DDR1 | DYRK1B | DYRK2

O=C1Cc2c([nH]c3ccc(Br)cc23)-c2ncccc2N1 [1-Azakenpaullone] (10 µM)
0: CAMK2A | CAMK2G | CDK10 | CDK2 | CDK3 | CDK5 | CDK6 | CHEK2 | CSF1R | CSK | CSNK1A1 | CSNK1D | DDR1 | DYRK1B | DYRK2

O=c1c(-c2ccc(O)cc2)coc2cc(O)cc(O)c12 [Genistein] (10 µM)
0: CAMK2A | CAMK2G | CDK10 | CDK2 | CDK3 | CDK5 | CDK6 | CHEK2 | CSF1R | CSK | CSNK1A1 | CSNK1D | DDR1 | DYRK1B | DYRK2

O=c1oc2c(O)c(O)cc3c(=O)oc4c(O)c(O)cc1c4c23 [Ellagic acid] (10 µM)
0: CAMK2A | CAMK2G | CDK10 | CDK2 | CDK3 | CDK5 | CDK6 | CHEK2 | CSF1R | CSK | CSNK1A1 | CSNK1D | DDR1 | DYRK1B | DYRK2

COc1nccc(-c2c(-c3ccc(F)cc3)ncn2C2CCC(O)CC2)n1 (configuration not stated) (10 µM)
0: CAMK2A | CAMK2G | CDK10 | CDK2 | CDK3 | CDK5 | CDK6 | CHEK2 | CSF1R | CSK | CSNK1A1 | CSNK1D | DDR1 | DYRK1B | DYRK2

N#Cc1ccc2[nH]c(O)c(-c3ccc(CN4CCOCC4)cn3)c2c1 (10 µM)
0: CAMK2A | CAMK2G | CDK10 | CDK2 | CDK3 | CDK5 | CDK6 | CHEK2 | CSF1R | CSK | CSNK1A1 | CSNK1D | DDR1 | DYRK1B | DYRK2

COc1cc(OC)cc(-c2cc3cnc(N)nc3nc2NC(=O)NC(C)(C)C)c1 (10 µM)
0: CAMK2A | CAMK2G | CDK10 | CDK2 | CDK3 | CDK5 | CDK6 | CHEK2 | CSF1R | CSK | CSNK1A1 | CSNK1D | DDR1 | DYRK1B | DYRK2

CN1CCC(Nc2ncc3ncnc(Nc4ccc(F)c(Cl)c4)c3n2)CC1 [Falnidamol] (10 µM)
0: CAMK2A | CAMK2G | CDK10 | CDK2 | CDK3 | CDK5 | CDK6 | CHEK2 | CSF1R | CSK | CSNK1A1 | CSNK1D | DDR1 | DYRK1B | DYRK2

Cc1ccc(NC(=O)Nc2nnc(Sc3ncnc4cc(OCCCN5CCOCC5)ccc34)s2)cc1 (10 µM)
0: CAMK2A | CAMK2G | CDK10 | CDK2 | CDK3 | CDK5 | CDK6 | CHEK2 | CSF1R | CSK | CSNK1A1 | CSNK1D | DDR1 | DYRK1B | DYRK2

Cc1c(Cn2c(C)nc3c(C(=O)O)cc(N4CCOCC4)cc32)cccc1C(F)(F)F (10 µM)
0: CAMK2A | CAMK2G | CDK10 | CDK2 | CDK3 | CDK5 | CDK6 | CHEK2 | CSF1R | CSK | CSNK1A1 | CSNK1D | DDR1 | DYRK1B | DYRK2 | EGFR | EGFR_G719S

CCCCNc1ncc(-c2ccc(CN3CCOCC3)cn2)c(NC2CCC(O)CC2)n1 (configuration not stated) (10 µM)
0: CAMK2A | CAMK2G | CDK10 | CDK2 | CDK3 | CDK5 | CDK6 | CHEK2 | CSF1R | CSK | CSNK1A1 | CSNK1D | DDR1 | DYRK1B | DYRK2 | EGFR | EGFR_G719S | EGFR_G719S_T790M | EGFR_L718V | EGFR_L858R

N#CC(=Cc1ccc(O)c(O)c1)C(=O)NCc1ccccc1 (mixture of isomers) (10 µM)
0: CAMK2A | CAMK2G | CDK10 | CDK2 | CDK3 | CDK5 | CDK6 | CHEK2 | CSF1R | CSK | CSNK1A1 | CSNK1D | DDR1 | DYRK1B | DYRK2

CCOc1cc2ncc(C#N)c(Nc3ccc(OCc4ccccn4)c(Cl)c3)c2cc1NC(=O)/C=C/CN(C)C [Neratinib] (10 µM)
0: CAMK2A | CAMK2G | CDK10 | CDK2 | CDK3 | CDK5 | CDK6 | CHEK2 | CSF1R | CSK | CSNK1A1 | CSNK1D | DDR1 | DYRK1B | DYRK2
